Measurements reported in US20040147495A1, “Sapogenin derivatives, their synthesis and use, and methods based upon their use” (priority 2001, published 2004).
At least one compound was matched to its structure with a doubt left.

Test system: muscarinic receptor
Assay: Cell based assay: muscarinic receptor number in transfected CHO cells by [3H]NMS binding
Set-up: species or system Chinese hamster
Settings: 10 microMolar, expression of m receptors in CHO cells
From the text: Chinese hamster ovary (CHO) cells transfected with a vector coding for a muscarinic receptor and/or beta adrenoreceptor. The cell line used for the majority of the experiments was a cell line expressing a muscarinic receptor.
The effects of epismilagenin cathylate, sarsasapogenin cathylate, episarsasapogenin cathylate, episarsasapogenin succinate, epismilagenin acetate and sarsasapogenin on the expression of m receptors in CHO cells transfected with vector for the m receptor were investigated. Receptor numbers were assayed using [^3H]NMS binding and subtracting non-specific binding. Compounds were dissolved in dimethyl sulphoxide (DMSO) and DMSO was used as a control.
Chinese hamster ovary (CHO) cells expressing high levels of muscarinic receptor (˜2.2 pmol mg protein^−1) were plated on a 24 well plate, 1 day before the start of the experiment. The culture medium was replaced with medium containing vehicle (DMSO) or the compounds.
The cells were incubated for 2/3 days, then after a medium change, cells were incubated for a further 2/3 days. The cells were incubated with a saturating concentration of labelled N-methyl-scopolamine, ([^3H]NMS). Cells were washed with ice cold phosphate-buffered saline (PBS) (3×) and bound [^3H]NMS determined by solubilising receptors with RIPA buffer followed by liquid scintillation counting.

SMILES: CCOC(=O)O[C@@H]1CC[C@@]2(C)[C@H](CC[C@@H]3[C@@H]2CC[C@]2(C)[C@@H]4[C@H](C[C@@H]32)O[C@]2(CC[C@@H](C)CO2)[C@H]4C)C1 [epismilagenin cathylate, 3-Ethoxycarbonyl 5β,20α,22α,25R-spirostan-3α-ol]
- Activity: ++
